Reference: patent publication US20070172844A1, “Individualized cancer treatments” (University of South Florida, priority 2005, published 2007)
For at least one compound, name, drawing or mass did not settle the structure.

System: lung cancer cell lines
Test: Cell proliferation assay (MTT, 96 hrs), docetaxel and LY-294002 in 17 lung cell lines
Assay type: cell-based, human
Settings: 17 lung cancer cell lines

O=c1cc(N2CCOCC2)oc2c(-c3ccccc3)cccc12 [LY-294002]
response of cell lines with increased probability of PI3 kinase pathway activation: more likely to respond
